The other results are listed elsewhere or left out. Single values are uncertain, as repeats are few or missing.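 Imaging used 1,536-well plates; nuclei positive for cleaved PARP by antibody were divided by total DNA-stained nuclei to yield the apoptosis fraction. Doses for screening kept most cells viable, and cell lines differ markedly in resting and induced cleaved-PARP levels.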
How the values were obtained:
Assay in all cases: cleaved PARP positive nuclei fraction relative to DMSO control; melanoma cells; higher = more apoptosis
Conditions in all cases: library dose: low library concentration; 72 h
501Mel = tested on: 501Mel
A101D = tested on: A101D
A2058 = tested on: A2058
A375 = tested on: A375
C32 = tested on: C32
CBRC008 = tested on: CBRC008 (line from a melanoma biopsy)
CBRC013 = tested on: CBRC013 (line from a melanoma biopsy)
CBRC014 = tested on: CBRC014 (line from a melanoma biopsy)
CBRC016 = tested on: CBRC016 (line from a melanoma biopsy)
CBRC017 = tested on: CBRC017 (line from a melanoma biopsy)
COLO792 = tested on: COLO792
COLO800 = tested on: COLO800
COLO829 = tested on: COLO829
G361 = tested on: G361
IPC-298 = tested on: IPC-298
IST-MEL1 = tested on: IST-MEL1
LB2518-MEL = tested on: LB2518-MEL
LOXIMVI = tested on: LOXIMVI
MEL-HO = tested on: MEL-HO

Compound | cleaved PARP positive nuclei fraction (501Mel) [%] | cleaved PARP positive nuclei fraction (A101D) [%] | cleaved PARP positive nuclei fraction (A2058) [%] | cleaved PARP positive nuclei fraction (A375) [%] | cleaved PARP positive nuclei fraction (C32) [%] | cleaved PARP positive nuclei fraction (CBRC008) [%] | cleaved PARP positive nuclei fraction (CBRC013) [%] | cleaved PARP positive nuclei fraction (CBRC014) [%] | cleaved PARP positive nuclei fraction (CBRC016) [%] | cleaved PARP positive nuclei fraction (CBRC017) [%] | cleaved PARP positive nuclei fraction (COLO792) [%] | cleaved PARP positive nuclei fraction (COLO800) [%] | cleaved PARP positive nuclei fraction (COLO829) [%] | cleaved PARP positive nuclei fraction (G361) [%] | cleaved PARP positive nuclei fraction (IPC-298) [%] | cleaved PARP positive nuclei fraction (IST-MEL1) [%] | cleaved PARP positive nuclei fraction (LB2518-MEL) [%] | cleaved PARP positive nuclei fraction (LOXIMVI) [%] | cleaved PARP positive nuclei fraction (MEL-HO) [%]
O=C(O)c1ccc2c(c1)nc(Nc1cccc(Cl)c1)c1ccncc12 + Cn1cncc1[C@@](N)(c1ccc(Cl)cc1)c1ccc2c(c1)c(-c1cccc(Cl)c1)cc(=O)n2C [tipifarnib] (first compound 0.4 µM, partner dose 0.01 µM) | 93.5 | 79.9 | 150 | 139 | 74.8 | 60.2 | 150 | 132 | 72.7 | 187 | 128 | 45.1 | 111 | 221 | 154 | 124 | 91.5 | 92.7 | 99.5
O=C(O)c1ccc2c(c1)nc(Nc1cccc(Cl)c1)c1ccncc12 + OCCn1cc(-c2cnc3nnn(Cc4ccc5ncccc5c4)c3n2)cn1 [PF04217903] (first compound 0.4 µM, partner dose 1 µM) | 82.8 | 92.1 | 101 | 258 | 92 | 203 | 119 | 106 | 117 | 122 | 101 | 74.8 | 147 | 253 | 198 | 218 | 166 | 109 | 148
CS(=O)(=O)CCNCc1ccc(-c2ccc3ncnc(Nc4ccc(OCc5cccc(F)c5)c(Cl)c4)c3c2)o1 [lapatinib] + OCCn1cc(-c2cnc3nnn(Cc4ccc5ncccc5c4)c3n2)cn1 [PF04217903] (first compound 0.8 µM, partner dose 1 µM) | 81.9 | 41.9 | 46 | 134 | 36.5 | 280 | 105 | 68.1 | 68.3 | 79.3 | 87.5 | 34.7 | 83.3 | 158 | 96.2 | 417 | 180 | 83.8 | 139
CNC(=O)c1cc(Oc2ccc(NC(=O)Nc3ccc(Cl)c(C(F)(F)F)c3)cc2)ccn1 [sorafenib] + OCCn1cc(-c2cnc3nnn(Cc4ccc5ncccc5c4)c3n2)cn1 [PF04217903] (first compound 0.4 µM, partner dose 1 µM) | 96.2 | 76.8 | 112 | 173 | 77.7 | 146 | 101 | 99.6 | 122 | 73 | 127 | 74.2 | 103 | 42 | 95.9 | 67.1 | 79.8 | 28.4 | 138
CS(=O)(=O)CCNCc1ccc(-c2ccc3ncnc(Nc4ccc(OCc5cccc(F)c5)c(Cl)c4)c3c2)o1 [lapatinib] + CN(C)S(=O)(=O)c1ccc2c(c1)/C(=C/c1cc3c([nH]1)CCCC3)C(=O)N2 [SU6656] (first compound 0.8 µM, partner dose 0.4 µM) | 177 | 452 | 367 | 126 | 93.7 | 61.9 | 229 | 99.5 | 125 | 59.2 | 154 | 152 | 38.4 | 90.3 | 43 | 110 | 44.5 | 347 | 132
O=C(O)[C@@H]1[O][Sb](=[O])([O][Sb]2(=[O])[O][C@H]([C@H](O)CO)[C@H](O)[C@H](C(=O)O)[O]2)[O][C@H]([C@H](O)CO)[C@@H]1O (some centres not stated) [stibogluconate] + Cc1ccc(NC(=O)c2cccc(N(C)C)c2)cc1NC(=O)c1ccc(O)cc1 [ZM336372] (first compound 2 µM, partner dose 2 µM) | 82.1 | 44.9 | 383 | 106 | 146 | 119 | 85.4 | 136 | 104 | 155 | 141 | 39.4 | 117 | 99 | 114 | 68.8 | 102 | 62.1 | 75.9
CN1CCN(c2ccc3nc(-c4c(N)c5c(F)cccc5[nH]c4=O)[nH]c3c2)CC1 [Dovitinib] + CO[C@@H]1[C@H](N(C)C(=O)c2ccccc2)C[C@H]2O[C@]1(C)n1c3ccccc3c3c4c(c5c6ccccc6n2c5c31)C(=O)NC4 [Midostaurin] (first compound 0.1 µM, partner dose 0.08 µM) | 88.6 | 99.8 | 141 | 112 | 100 | 163 | 169 | 90.1 | 181 | 106 | 153 | 192 | 77.6 | 87 | 90.5 | 65.8 | 97.5 | 77.7 | 71.1
O=C(O)c1ccc2c(c1)nc(Nc1cccc(Cl)c1)c1ccncc12 + CC(C)(C)c1cnc(CSc2cnc(NC(=O)C3CCNCC3)s2)o1 [SNS-032] (first compound 0.4 µM, partner dose 0.01 µM) | 97.3 | 76 | 43.6 | 108 | 49.5 | 284 | 105 | 281 | 81.2 | 205 | 125 | 74.9 | 78.5 | 134 | 94.2 | 39.1 | 51.1 | 251 | 78.8

Source: the supplement of paper PMC4604168 (melanoma cell lines)
